# Measured values published in the supplement of paper PMC12067093, “Discovery and optimisation of a covalent ligand for TRIM25 and its application to targeted protein ubiquitination” (Chemical Science, 2025).
# This is one part of the list.
# Target: T1, TRMT12_Q53H54_444_SYAPHVDHIVLDLECCPCPSVG (UniProt Q53H54)
# T1 sequence (whole entry): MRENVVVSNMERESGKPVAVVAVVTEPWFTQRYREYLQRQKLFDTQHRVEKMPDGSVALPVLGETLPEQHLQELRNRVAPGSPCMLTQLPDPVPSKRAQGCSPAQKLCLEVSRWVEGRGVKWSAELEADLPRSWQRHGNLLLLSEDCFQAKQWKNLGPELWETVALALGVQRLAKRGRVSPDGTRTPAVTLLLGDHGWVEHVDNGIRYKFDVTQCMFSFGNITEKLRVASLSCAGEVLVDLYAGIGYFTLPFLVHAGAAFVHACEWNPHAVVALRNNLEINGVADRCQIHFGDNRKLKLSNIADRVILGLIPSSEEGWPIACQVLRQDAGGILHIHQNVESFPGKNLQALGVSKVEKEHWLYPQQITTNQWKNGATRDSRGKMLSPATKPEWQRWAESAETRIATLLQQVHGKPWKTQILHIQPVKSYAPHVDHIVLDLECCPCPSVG
# Experiment: probe-labelled cysteine peptide fold change vs DMSO (competition) (log2 fold change); higher = less target engagement (more negative = stronger competition)
# Conditions: THP-1, incubation time: 4 h
# 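Note: competitive chemoproteomic profiling in live THP-1 cells with an iodoacetamide desthiobiotin (IA-DTB) probe, comparing probe-labelled peptide intensities in compound-treated cells against DMSO-treated controls.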
smiles,measurement,setting,value
CC1Cc2ccccc2N1C(=O)C1CCCN(C(=O)CCl)C1 (mixture of isomers) [TRIM25 ligand 11 (diastereomer mixture)],probe-labelled cysteine peptide fold change,10 µM,-0.0822
same,probe-labelled cysteine peptide fold change,50 µM,0.0539
